Reference: patent publication US6706528B2, “Fluorescent magnesium indicators” (The United States of America as represented by the …, priority 2000, dated 2004)

Assay: fluorescence/Mg2+ titration of the indicators (emission spectra, apparent dissociation constants)
Format: binding
Details: for Emission, fluorescence maximum upon saturation of the indicator: after the arrow, saturated with Mg^2+; for Emission, fluorescence maximum upon saturation of the indicator / Emission, fluorescence maximum of the free indicator: pH 7.2; for Emission, fluorescence maximum of the free indicator: before the arrow; for crossover point of the emission spectra: Mg^2+ titration; for bathochromic shift of the fluorescence emission upon binding Mg^2+: free versus Mg^2+-saturated indicator

Row | Molecule | Emission, fluorescence maximum upon saturation of the indicator [nm] | Emission, fluorescence maximum of the free indicator [nm] | crossover point of the emission spectra [nm] | bathochromic shift of the fluorescence emission upon binding Mg^2+ [nm] | separation of the fluorescence maxima of free and Mg^2+-bound indicator | hypsochromic shift of the fluorescence maximum with respect to 4-oxo-4H-quinolizine-3-carboxylic acid (1a) (free indicator versus 1a) [nm] | change of the fluorescence emission when binding Mg^2+ (increasing Mg^2+ levels)
1 | O=C(O)c1ccc2ccc3ccccc3n2c1=O [Compound 3a, [6,7]benzo-4-oxo-4H-quinolizine-3-carboxylic acid] | 467 | 485 | – | – | – | – | –
2 | Nc1ccn2c(=O)c(C(=O)O)ccc2c1 [Compound 15a, 8-amino-4-oxo-4H-quinolizine-3-carboxylic acid] | 396 | 406 | – | – | – | – | –
3 | O=C(O)c1ccc2ccccn2c1=O [Compound 1a, 4-oxo-4H-quinolizine-3-carboxylic acid] | 408 | 435 | 437 | 23 | – | – | –
4 | COc1ccc(-c2ccn3c(=O)c(C(=O)O)ccc3c2)cc1 [Compound 22a, 8-(4-methoxyphenyl)-4-oxo-4H-quinolizine-3-carboxylic acid] | 444 | 470 | – | – | – | – | –
5 | O=C(O)c1cc(Br)c2ccccn2c1=O [Compound 9a, 1-bromo-4-oxo-4H-quinolizine-3-carboxylic acid] | 442 | 460 | 446 | 18 | well-separated fluorescence maxima; also recorded: fully separated fluorescence maxima | – | –
6 | 1-[N,N-di(carboxymethyl)]-4-oxo-4H-quinolizine-3-carboxylic acid [Compound 11a] | 548 | 552 | – | 4 | – | 117 | increase of the fluorescence emission
7 | O=C(O)c1ccc2cc(Cl)ccn2c1=O [Compound 2a, 4-oxo-8-chloro-4H-quinolizine-3-carboxylic acid] | 418 | 445 | – | – | – | – | –
8 | O=C(O)Cc1ccn2c(=O)c(C(=O)O)ccc2c1 [Compound 19a, 8-(carboxymethyl)-4-oxo-4H-quinolizine-3-carboxylic acid] | 410 | 432 | – | – | overlap of the fluorescence spectra | – | –
9 | O=C(O)c1ccc2cc(-c3cccc4ccccc34)ccn2c1=O [Compound 23a, 8-(naphth-1-yl)-4-oxo-4H-quinolizine-3-carboxylic acid] | 456 | 490 | – | – | – | – | –
10 | O=C(O)C(=Cc1cc(C(=O)O)c(=O)n2ccccc12)C(=O)O [Compound 12a, 1-(2,2-dicarboxyvinyl)-4-oxo-4H-quinolizine-3-carboxylic acid] | 461 | 466 | – | – | – | – | –
11 | O=C(O)c1cc(CC(C(=O)O)C(=O)O)c2ccccn2c1=O [Compound 13a, 1-(2,2-dicarboxyethyl)-4-oxo-4H-quinolizine-3-carboxylic acid] | 429 | 456 | – | – | – | – | –
12 | O=C(O)CC(C(=O)O)c1ccn2c(=O)c(C(=O)O)cc(Br)c2c1 (stereo not drawn) [Compound 21a, 1-bromo-8-(1,2-dicarboxyethyl)-4-oxo-4H-quinolizine-3-carboxylic acid] | 437 | 463 | 451 | 26 | well-separated fluorescence maxima; also recorded: fully separated fluorescence maxima | – | –
13 | O=C(O)c1ccc2cc(-c3cc4ccccc4o3)ccn2c1=O [Compound 24a, 8-benzo[b]furyl-4-oxo-4H-quinolizine-3-carboxylic acid] | 459 | 496 | – | 37 | – | – | –
14 | O=C(O)CC(C(=O)O)c1ccn2c(=O)c(C(=O)O)ccc2c1 (stereo not drawn) [Compound 20a, 8-(1,2-dicarboxyethyl)-4-oxo-4H-quinolizine-3-carboxylic acid] | 411 | 432 | – | – | overlap of the fluorescence spectra | – | –

Entries after “also recorded” stand apart in the source; their conditions may differ.
